PubChem BioAssay AID504791 | Drosophila RNAi Screening Center, 2011

- Screen: 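Genes whose knock-down strengthens or weakens small-RNA reporter silencing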 (primary screen)
- System: Drosophila S2-derived reporter cells
- Knock-down reagent: long dsRNA against Drosophila genes, about 150-250 ng dsRNA per well (siRNA assay); about 80-120 ng (miRNA assay)
- Time to read-out: about 5 days (siRNA assay); about 4 days (miRNA assay)
- Treatment: copper sulfate induction of reporters: 25 µM (siRNA assay); 200 mM stated (miRNA assay), 1-2 days before reading
- Measurement: 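Dual luciferase assay: Renilla to firefly signal ratio in each well, scaled to the mean ratio of its plate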
- Active means: 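First-pass picks had plate-scaled ratios over 1.5 for the siRNA assay, over 1.6 for the miRNA assay, or under 0.6; two distinct dsRNAs had to score alike on retest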
In all, the deposit lists about 23,000 reagents; this is an unselected part of those with a known target gene and a result. In the full data, 199 (0.86%) were called active. 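Plate-scaled ratios behind the calls are not deposited; printed light signals are raw; many rows marked increased or decreased are still called inactive.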 Names joined by + are all predicted targets of the reagent. Reagent sequences are not shown. The record does not give: the direction of the score.

gene knocked down	amplicon	stable siRNA reporter change	miRNA reporter change	stable assay Renilla, run 1 (luminescence)	stable assay firefly, run 1 (luminescence)	outcome
Fa2h	DRSC06608			7431	4.31e5	inactive
Fa2h	DRSC06609			6734	3.19e5	inactive
CG9380	DRSC04549			7254	5.50e5	inactive
CG4949	DRSC19926			6692	5.47e5	inactive
CG15127	DRSC05802			5492	3.53e5	inactive
CG15127	DRSC06549			5424	2.42e5	inactive
CG3909	DRSC14150			4419	4.17e5	inactive
pod1	DRSC18362			7563	4.12e5	inactive
CG1441	DRSC06448			9266	4.16e5	inactive
Naglu	DRSC02267			2.28e5	7.70e5	inactive
Cpr65Ea	DRSC11027			6706	3.50e5	inactive
CSN1a	DRSC01951			7326	4.39e5	inactive
CG42525	DRSC08026			4603	3.93e5	inactive
Sac1	DRSC08622			10569	5.22e5	inactive
hrm	DRSC04853			6683	4.60e5	inactive
Sec16	DRSC19788			4571	3.96e5	inactive
Sec16	DRSC19858			4563	3.79e5	inactive
CG12546	DRSC11676			8723	4.52e5	inactive
CG17024 (retired record)	DRSC02562			7356	4.76e5	inactive
CG32302	DRSC08340			6103	3.94e5	inactive
Gbeta76C	DRSC11174	reporter ratio raised past the hit cutoff		24170	4.44e5	inactive
asRNA:CR31084	DRSC21649			8406	6.76e5	inactive
mora	DRSC16594			5852	3.19e5	inactive
Prp16	DRSC19538			10175	6.10e5	inactive
Prp16	DRSC19542			6379	4.57e5	inactive
dar1	DRSC08049			4360	3.70e5	inactive
dar1	DRSC08233			6971	4.53e5	inactive
dl	DRSC03520		reporter ratio raised past the hit cutoff	49494	2.20e6	inactive
dl	DRSC03521			7918	4.09e5	inactive
Vha55	DRSC16896			7598	4.19e5	inactive
CG14803	DRSC18556			5860	4.14e5	inactive
CG33282	DRSC00422			7188	3.01e5	inactive
scra	DRSC07679			8911	4.33e5	inactive
Mdr49	DRSC07466		reporter ratio lowered past the hit cutoff	7663	5.18e5	active
CG5397	DRSC00683			35661	1.60e5	inactive
Start1	DRSC04384			38280	1.79e6	inactive
GstD10	DRSC15346			6791	3.41e5	inactive
Tret1-2	DRSC07117			4875	2.23e5	inactive
CG12035	DRSC08238			10171	3.53e5	inactive
nSMase	DRSC08237			7838	5.26e5	inactive
hui	DRSC05977			7567	2.97e5	inactive
CG31924	DRSC00689			7175	4.41e5	inactive
CG11672	DRSC14344			7992	4.56e5	inactive
CG10584	DRSC11624			7472	4.31e5	inactive
Atf-2	DRSC04130			8889	2.14e6	inactive
Atf-2	DRSC04413			5351	5.81e5	inactive
CG3104	DRSC00567			7977	5.75e5	inactive
CG10359	DRSC08156			8370	4.51e5	inactive
CG13457	DRSC10004			6198	3.47e5	inactive
CG18528	DRSC15340			7954	4.65e5	inactive
CG12523	DRSC09895			4591	4.27e5	inactive
CG5500	DRSC15820			6415	4.25e5	inactive
Cyp317a1	DRSC07366			5655	3.20e5	inactive
Ctr1B + Poxm	DRSC16245			7386	4.00e5	inactive
Lip1	DRSC03364			7384	4.80e5	inactive
CG7987	DRSC16357			9517	6.43e5	inactive
Socs16D	DRSC20087			5452	4.29e5	inactive
Socs16D	DRSC23165			4512	3.63e5	inactive
IleRS-m	DRSC10506			7007	2.86e5	inactive
CG1902	DRSC06798			7039	3.84e5	inactive
unc79	DRSC15746			7845	3.40e5	inactive
RanGAP	DRSC22003			8534	5.32e5	inactive
RanGAP	DRSC29400		reporter ratio lowered past the hit cutoff			inactive
Naxe	DRSC18251			5399	3.49e5	inactive
DCX-EMAP	DRSC10012			6602	2.91e5	inactive
DCX-EMAP	DRSC10013			5803	2.95e5	inactive
CG3492	DRSC04373			2.08e5	1.50e6	inactive
egg	DRSC04119			20374	2.19e6	inactive
egg	DRSC22534			6392	7.45e5	inactive
CG34126	DRSC02726			9117	6.11e5	inactive
CG34126	DRSC22079			9326	6.43e5	inactive
CG34204	DRSC03897			6051	5.39e5	inactive
stol	DRSC01956			6688	2.52e5	inactive
Ca-beta	DRSC02406			6767	3.61e5	inactive
Ca-beta	DRSC02407			6699	3.99e5	inactive
Ca-beta	DRSC03285			5554	5.05e5	inactive
Ca-beta	DRSC21432			8708	4.38e5	inactive
CG18476	DRSC15281			7406	4.76e5	inactive
Ero1L	DRSC08660			7581	3.79e5	inactive
ckn	DRSC06149		reporter ratio lowered past the hit cutoff	7801	4.25e5	inactive
CG18823	DRSC18168			6232	3.92e5	inactive
Mic26-27	DRSC15913			8850	3.77e5	inactive
CG42254 (retired record)	DRSC06194			6340	3.41e5	inactive
